Laboratory results: patent US20110294982A1 (Ablynx, published 2011)
These are yes or no findings as the source states them, for the method shown. In cells and extracts the contact can be indirect. A yes stands for co-enrichment or nearness to the bait. Other partners may have been found.

Sequences of proteins named here, by UniProt entry; tags and fusion partners are left off. A change or cut given only in a name is not applied to a line headed by its entry.
UniProt P26006: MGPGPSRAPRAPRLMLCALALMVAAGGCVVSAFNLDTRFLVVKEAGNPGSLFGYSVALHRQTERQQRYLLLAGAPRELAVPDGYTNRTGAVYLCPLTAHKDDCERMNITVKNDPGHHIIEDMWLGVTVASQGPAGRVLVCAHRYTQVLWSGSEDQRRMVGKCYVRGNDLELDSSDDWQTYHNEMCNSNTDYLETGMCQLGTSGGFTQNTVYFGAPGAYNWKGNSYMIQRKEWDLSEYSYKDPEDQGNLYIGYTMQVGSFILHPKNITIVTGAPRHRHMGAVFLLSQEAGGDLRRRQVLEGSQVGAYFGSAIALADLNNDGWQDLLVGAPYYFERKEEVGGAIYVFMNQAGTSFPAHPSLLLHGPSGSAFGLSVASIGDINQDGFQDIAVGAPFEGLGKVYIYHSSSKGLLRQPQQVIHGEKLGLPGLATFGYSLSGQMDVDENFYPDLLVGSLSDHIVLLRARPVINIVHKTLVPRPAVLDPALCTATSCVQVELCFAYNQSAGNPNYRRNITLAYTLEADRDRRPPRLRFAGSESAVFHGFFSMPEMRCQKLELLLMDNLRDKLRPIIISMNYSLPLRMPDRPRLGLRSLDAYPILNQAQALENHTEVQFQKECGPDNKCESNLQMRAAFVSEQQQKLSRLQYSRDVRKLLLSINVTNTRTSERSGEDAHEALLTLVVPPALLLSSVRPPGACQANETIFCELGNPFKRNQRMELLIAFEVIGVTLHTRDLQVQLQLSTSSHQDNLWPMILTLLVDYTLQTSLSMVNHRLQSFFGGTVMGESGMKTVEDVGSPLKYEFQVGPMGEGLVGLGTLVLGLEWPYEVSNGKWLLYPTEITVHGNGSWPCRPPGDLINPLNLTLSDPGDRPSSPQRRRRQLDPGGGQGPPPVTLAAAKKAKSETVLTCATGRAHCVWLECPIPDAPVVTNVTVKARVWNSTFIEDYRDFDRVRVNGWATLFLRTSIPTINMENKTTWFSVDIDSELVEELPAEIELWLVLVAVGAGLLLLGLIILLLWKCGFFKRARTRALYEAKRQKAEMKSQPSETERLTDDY

Target: α3β1 (VLA-3) integrin of cells (HeLa cells; K562A3 transfectants) (human) (UniProt P26006)
Test: immunoprecipitation from HeLa cell lysate, mass spectrometry of the 150 kDa band

binding: binds
B1: VHH-H6 (VHH)
VHH: QVQLQDSGGGLVQAGGSLRLSCEASGRTFSSYAMGWFRQPPGKEREWVSTISRSGSAIYAYPVKGRFTMSRDNAKNTVYLEMNSLKPEDTAVFYCAAARSGVPSSRPTDYDYWGQGTQVTVSS
notes: Used with a Myc tag (captured/detected with anti-Myc 9E10) and a C-terminal His6 tag (detected with anti-HIS6 (C-term)); also called H6-VHH
